PubChem BioAssay AID540275 (National Center for Advancing Translational Sciences (NCATS), 2011)
Out of some 320,000 compounds screened, about 620 (0.19%) were called active. Inconclusive results, whose numbers are uncertain, are shown with a selection of clear calls. Cut-off read from the data, not from the text of the source: active = activation above about 80%; inconclusive = between about 30% and that limit; inactive = weaker than that.

Amino acid sequences for entries named in this document (tags omitted).
UniProt Q8NER1, whole entry, looked up: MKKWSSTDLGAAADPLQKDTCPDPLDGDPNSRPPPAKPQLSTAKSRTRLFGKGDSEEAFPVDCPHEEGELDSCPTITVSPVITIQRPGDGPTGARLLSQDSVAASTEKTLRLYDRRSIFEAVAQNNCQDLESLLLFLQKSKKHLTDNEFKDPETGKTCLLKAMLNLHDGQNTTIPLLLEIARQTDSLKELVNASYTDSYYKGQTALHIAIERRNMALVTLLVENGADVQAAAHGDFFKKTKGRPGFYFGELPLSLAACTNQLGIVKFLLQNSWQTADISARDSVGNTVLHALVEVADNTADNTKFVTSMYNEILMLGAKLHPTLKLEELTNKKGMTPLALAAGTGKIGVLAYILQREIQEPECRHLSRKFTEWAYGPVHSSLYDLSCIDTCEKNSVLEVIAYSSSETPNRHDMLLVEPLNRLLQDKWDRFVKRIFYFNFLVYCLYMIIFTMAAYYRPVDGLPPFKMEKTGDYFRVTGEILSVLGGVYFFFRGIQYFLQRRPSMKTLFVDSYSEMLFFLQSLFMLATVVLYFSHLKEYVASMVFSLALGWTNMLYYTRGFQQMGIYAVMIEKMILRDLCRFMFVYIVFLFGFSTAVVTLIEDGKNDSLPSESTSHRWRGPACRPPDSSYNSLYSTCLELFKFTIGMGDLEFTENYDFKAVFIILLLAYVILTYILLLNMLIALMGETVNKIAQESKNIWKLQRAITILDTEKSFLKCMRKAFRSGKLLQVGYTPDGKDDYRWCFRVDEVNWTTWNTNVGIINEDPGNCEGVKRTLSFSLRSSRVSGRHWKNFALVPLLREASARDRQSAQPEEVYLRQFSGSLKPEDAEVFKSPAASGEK

Target: Transient receptor potential cation channel subfamily V member 1 (Homo sapiens) (UniProt Q8NER1)
Assay: HTS Assay for Compounds that Act as Agonists of the Vanilloid Receptor 1; note: 0% is about no effect
Conditions: TRPV1-expressing cells, Fluo-8 calcium influx, agonist mode; at 8.33 µM, hits give high values
Procedure, shortened: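 Cells expressing TRPV1 were dye-loaded with Fluo-8 and read kinetically: 10 s baseline, 3 min after compound (agonist portion), then 2 min after EC20 capsaicin (allosteric enhancer portion). Calcium-bound dye fluorescence at 480/520 nm.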

SMILES | activation
CN(C)c1ccc(NC(=S)NC23CC4CC(CC(C4)C2)C3)cc1 | inconclusive: 34.1%
Cc1ccc(-c2nnn(CC(=O)N(CC(=O)NC3CCCC3)c3ccc(F)cc3)n2)o1 | inactive: 0.798%
CC(C)CNC(=O)Nc1ccc(F)c(Cl)c1 | inconclusive: 40.4%
Cc1ccc(C(=O)c2cc3ccccc3o2)cc1C | inconclusive: 30.8%
Cc1cc(-c2ccccc2)nc(-c2ccccc2)c1C | inconclusive: 32.3%
O=C(COC(=O)CCc1ccccc1)NC12CC3CC(CC(C3)C1)C2 | inconclusive: 38.3%
CCn1c(=O)c([N+](=O)[O-])c(N2CCSCC2)c2ccccc21 | inconclusive: 36.2%
COc1ccc(CN2C(=O)c3ccccc3C(/C=N\OCc3ccc(F)cc3)C2=O)cc1 (stereo not given) | inconclusive: 35.6%
CC(=O)c1ccc(NC(=O)CCC(=O)N2CC(C)Oc3ccc(C)cc32)cc1 (stereo not given) | inconclusive: 63.2%
COc1ccc(N2CC(C(=O)Nc3ccc4c(c3)OCCO4)CC2=O)cc1 (stereo not given) | inconclusive: 49.5%
COc1ccc(/C=C2\N=C(SC)N(c3ccccc3OC)C2=O)cc1 | inactive: 5.85%
O=C(CN1CCN(c2ccccn2)CC1)Nc1cccc(Br)c1 | inactive: 2.87%
COc1ccc(-n2nc(C(=O)NCC(=O)N3CCN(Cc4ccccc4)CC3)c3ccccc3c2=O)cc1 | inconclusive: 37.4%
O=C(NCCS(=O)(=O)NCCc1ccccc1)c1ccc2c(c1)OCO2 | inconclusive: 34%
O=C(CSc1ccc(F)cc1)NCCc1ccc(Cl)cc1 | inconclusive: 39.9%
COc1ccc(/C=C/c2c(-c3ccc(OC)cc3)sc3ccc(N4CCOCC4)cc23)cc1 | inactive: 4.95%
Cc1ccc(Cl)cc1N1CCN(Cc2nnnn2C2CCCCC2)CC1 | inconclusive: 31.4%
Cc1ccc2nc(NC(=O)C3CCCN(S(=O)(=O)c4cccnc4)C3)sc2c1 (stereo not given) | inconclusive: 39.5%
CC1Cc2ccccc2N1S(=O)(=O)c1cccc(C(=O)N2CCCCC2)c1 (stereo not given) | inconclusive: 45.2%
Cc1ccc(C2=Nc3c(ccc4ccccc34)C(c3ccncc3)=NN2)cc1 | inconclusive: 35.2%
Cc1cccc2c1N(C(=O)CN1C(=O)c3ccccc3C1=O)C(C)(C)c1ssc(=S)c1-2 | inactive: -5.62%
O=C(c1ccccc1)c1ccc(OC(=O)C2CCCCC2)cc1 | inconclusive: 32.6%
O=C(CSCc1c(Cl)cccc1Cl)Nc1cccnc1 | inconclusive: 33%

Shown with tabs: five of the compounds above
SMILES	activation
O=C(COC(=O)CCc1ccccc1)NC12CC3CC(CC(C3)C1)C2	inconclusive: 38.3%
CCn1c(=O)c([N+](=O)[O-])c(N2CCSCC2)c2ccccc21	inconclusive: 36.2%
COc1ccc(CN2C(=O)c3ccccc3C(/C=N\OCc3ccc(F)cc3)C2=O)cc1 (stereo not given)	inconclusive: 35.6%
CC(=O)c1ccc(NC(=O)CCC(=O)N2CC(C)Oc3ccc(C)cc32)cc1 (stereo not given)	inconclusive: 63.2%
COc1ccc(N2CC(C(=O)Nc3ccc4c(c3)OCCO4)CC2=O)cc1 (stereo not given)	inconclusive: 49.5%

(further entries)

SMILES | activation
COc1cc(/C=C(/C#N)c2ccc(F)cc2)ccc1OCc1ccc(C(=O)O)o1 | inactive: 2.62%
O=C(Nc1ccccc1)Nc1cccc(Cl)c1Cl | inconclusive: 52.7%
Cc1cc(N2CCC(C(=O)Nc3ccc(F)cc3)CC2)nc(-c2ccccc2)n1 | inconclusive: 69%
COc1ccc2c(c1)CCc1c(C(=O)N3CCOCC3)noc1-2 | active: 81.2%
CC(C)Cn1cc(C(=O)NCc2cccs2)c2c3ccccc3n(C)c2c1=O | inactive: 4.25%
CC1CCC(NC(=O)c2ccc3c(c2)OCO3)CC1 (stereo not given) | inconclusive: 65.2%
CC(=O)Nc1ccc(SC[C@H](C)CN2CC[C@H](C(C)(C)C)CCC2=O)cc1 | inconclusive: 63.6%
CCOC(=O)c1cnc(-n2cc(C)cn2)nc1NCc1ccc2c(c1)OCO2 | inconclusive: 45.3%
COc1ccc(CC(=O)N2CC(C)CC(C)C2)cc1 (stereo not given) | inconclusive: 30.4%
CCN(CC)S(=O)(=O)c1ccc(N2CCCC2)c(NC(=O)c2nn(C)c(=O)c3ccccc23)c1 | inactive: 6.23%
CCOc1ccccc1NC=C1C(=O)OC2(CCCCC2)OC1=O | inconclusive: 30.3%
CCOC(=O)C1CCN(C(=O)Nc2ccc(Cl)cc2)CC1 | inconclusive: 59.8%
N#Cc1c(C(F)(F)F)cc(-c2cccc(Cl)c2)[nH]c1=O | inactive: -0.627%
CC(C)(C)OC(=O)[C@H](CCCCN)NC(=O)c1nc[nH]c1C(=O)NCCCCCN | inactive: 0.473%
COc1ccc(C(=O)c2oc3nc(C)cc(C)c3c2N)cc1 | inconclusive: 45.7%
O=C(O)c1ccc(N/N=C/c2cc3cc4c(cc3nc2Cl)OCCO4)cc1 | inactive: 1.11%
Cc1cccc(Cn2c(C(=O)OC(C)C)cc3c2ccn3C)c1 | inconclusive: 35.7%
O=C(CSc1nnc(CNc2ccc(F)cc2)o1)N1c2ccccc2Sc2ccccc21 | inactive: -1.19%
COc1ccc(/C=C(/NC(=O)c2cccs2)C(=O)Nc2ccc(C)cc2)cc1OC | inactive: -3.59%
Cc1ccc(NC(=O)CNC2CCCCC2)cc1Cl | inconclusive: 53.7%
CCOC(CCNC(=O)c1cn(CC(C)C)c(=O)c2c1c1ccccc1n2C)OCC | inactive: 12.8%
Cc1cc(C)cc(Nc2ncnc3nc[nH]c23)c1 | inconclusive: 32.2%
O=C(c1ccccc1)N1CC(COc2ccccc2)OC(c2cccnc2)O1 (stereo not given) | inconclusive: 60.4%

SMILES | activation
CCC(=O)N1CCN(c2nc(CC)nc3sc4c(c23)CCCC4)CC1 | inconclusive: 60.8%
O=C(CSc1ccccc1)NCCSCc1ccccc1 | inconclusive: 32.1%
Cc1ccc(C)c(N2CCN(C(=O)c3cc4ccccn4n3)CC2)c1 | inconclusive: 74%
O=C(CCC1CCCN(C(=O)c2ccc3c(c2)OCO3)C1)NCc1ccc(F)c(F)c1 (stereo not given) | inactive: 3.35%
O=C(NN=C1CCCCCCCCCCC1)c1ccncc1 | inconclusive: 47.7%
O=C(CSCc1ccc(Br)cc1)NCCc1ccccc1 | inconclusive: 30.7%
CCOC(=O)c1c(-c2ccc(C)cc2)csc1NC(=O)c1cc2ccccc2oc1=O | inactive: 1.23%
C[n+]1ccc(/C=C/c2c[nH]c3ccc(F)cc23)cc1 | inactive: -5.84%
CCn1cc(Br)c(C(=O)Nc2ccc(C(=O)OC(C)C)cc2)n1 | inconclusive: 65.2%
O=C(Nc1ccc(S(=O)(=O)Nc2ncccn2)cc1)C1CC(=O)N(c2ccccc2)C1 (stereo not given) | inactive: -0.186%
CCOc1cc2[nH]c(=O)n(Cc3ccccc3)c(=O)c2cc1OCC | inactive: 1.19%
COc1ccc(NC(=S)NCc2ccc(F)cc2)c(OC)c1 | inactive: -1.36%
CC(=O)N/C(=C\c1ccccc1)C(=O)OCC(=O)NC(C)C12CC3CC(CC(C3)C1)C2 (stereo not given) | inconclusive: 37%
CCCNC(=O)CCc1c(C)nc2c(c(C)nn2-c2ccccc2)c1C | inconclusive: 60.2%
CC1(C)NC(=O)N(CCOc2cccc(Oc3ccccc3)c2)C1=O | inconclusive: 46.4%
CC(C)(C)CC(=O)NC(=S)Nc1ccccc1C(F)(F)F | inconclusive: 31.8%
COC(=O)c1ccc(NC(=O)CSCc2ccc(C)cc2)cc1 | inconclusive: 44%
COc1ccc2c(c1)CCC/C2=N\Nc1nc(C(=O)NN)cs1 | inconclusive: 31.6%
CCCCC[C@H]1CN(C2CCCCC2)C(=O)[C@@H]1CC(=O)NCc1ccccc1 | inconclusive: 65.8%
NS(=O)(=O)c1ccc(CNC(=S)NCc2ccc(Cl)cc2)cc1 | inconclusive: 79.3%
CC1CCN(S(=O)(=O)c2ccc(N=NC3=C(O)CC(C)(C)CC3=O)cc2)CC1 | inactive: -9.69%
CN1C/C(=C/c2ccncc2)C(=O)/C(=C/c2ccncc2)C1 | inactive: -1.45%
CC(=O)Nc1ccc(S(=O)(=O)N(C)CC(=O)Nc2ccccc2N2CCCC2)cc1 | inconclusive: 35.7%

SMILES | activation
CCCn1c(SCC(=O)O)nc2ccccc21 | inactive: -14.9%
Cc1cccc(NC(=O)c2c([N+](=O)[O-])c(C(C)(C)C)nn2C)c1 | inconclusive: 66.7%
CCSc1nnc([C@H](Cc2c[nH]c3ccccc23)NC(=O)OC(C)(C)C)o1 | inconclusive: 49.8%
O=C(Cc1ccc([N+](=O)[O-])cc1)NC1CCCCCC1 | inconclusive: 47%
CCOc1cc(C2C(C(=O)OC)=CN(C3CCCC3)C=C2C(=O)OC)cc(Br)c1O | inconclusive: 53.8%
Cc1cc(C)c(OCC(=O)OCC(=O)NCc2cccs2)c(C)c1 | inconclusive: 37%
CC(=O)Oc1ccc2ccccc2c1C(NC(=O)Cc1ccccc1)c1ccccc1 (stereo not given) | inconclusive: 64.9%
O=C(Nc1ccc(Cl)cc1)c1cccc(OC(=S)N2CCOCC2)c1 | inconclusive: 35.4%
O=[N+]([O-])c1cc(/C=N\O)ccc1Oc1ccc(F)cc1 | inconclusive: 40.4%
COc1ccc(CN2CCN(c3cc(C)nc4c5c(C)cc(C)nc5nn34)CC2)cc1F | inactive: 25%
Cc1cc(C)cc(NC(=S)Nc2cccc3cnccc23)c1 | inactive: -1.17%
O=C(CN(c1ccc(F)cc1)S(=O)(=O)c1ccccc1)NC1CC2CCC1C2 (stereo not given) | inconclusive: 36.6%
CC1(c2ccc3noc(-c4ccc(F)cc4)c3c2)OCCO1 | inconclusive: 58.9%
CC(C)c1ccc(Nc2ncccc2C#N)cc1 | inconclusive: 39.9%
CCOP(=O)(OCC)C(Nc1cccc(C(F)(F)F)c1)c1ccc(C)cc1 (stereo not given) | inconclusive: 42.8%
COc1ccc(OC(C)C(=O)NCCC2=CCCCC2)cc1 (stereo not given) | inconclusive: 35%
COc1ccc2c(c1)C1(Nc3ccccc3-c3nc4ccccc4n31)C(=O)N2 (stereo not given) | inactive: 0.114%
Nc1nonc1-n1nnc(C(=O)N/N=C/c2ccoc2)c1CSc1ccccc1 | inconclusive: 39.4%
CC(CCc1ccccc1)NC(=O)CN(C)Cc1ccc(F)cc1 (stereo not given) | inconclusive: 35.5%
Cc1ccc(-c2csc(=Nc3cccnc3)n2CCCN2CCCC2=O)cc1C | inactive: 8.49%
CC[C@@H]1CC=C[C@H]2[C@H]1C(=O)N(Cc1ccccc1)[C@H]2c1ccc(C(F)(F)F)cc1 | inconclusive: 34.3%

Taken from the entries so far for reference:
SMILES | activation
COc1ccc2c(c1)C1(Nc3ccccc3-c3nc4ccccc4n31)C(=O)N2 (stereo not given) | inactive: 0.114%
Nc1nonc1-n1nnc(C(=O)N/N=C/c2ccoc2)c1CSc1ccccc1 | inconclusive: 39.4%
